Molecules are shown by their SMILES. This is one part of the list. Shown are side measurements of this screen, not its main read-out; they come without a call. Most of these compounds were active or inconclusive in the main read-out, so they are no random draw. Words in brackets tell the shape of the fitted curve; partial curves, single points and poor fits give uncertain potencies.

The nature of this experiment: qHTS Assay for Lipid Storage Modulators in Drosophila S3 Cells.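 For cell number change: cells counted by Cell Tracker Red CMTPX staining in the red channel.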 As to conditions: BODIPY lipid droplet fluorescence, 18-24 h; for cell number change: measured here: cell count max response, cells fed with added oleic acid. The method in brief: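 Drosophila S3 cells got compounds at several concentrations plus oleic acid (400 uM solution). Laser-scanning cytometry with 488 nm excitation read lipid droplets at 500-530 nm and cells at 575-640 nm. Percent activity was relative to 20 uM Triacsin C.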
In general terms: Quantitative high-throughput screening tests each substance at several concentrations.

Setting [1] is: measured here: lipid fluorescence (Fed channel) AC50, cells fed with added oleic acid.
Where [2] appears, read: measured here: cell number channel AC50, cells fed with added oleic acid.

Consider `CC/C(=N\N=C1\SC(C)C(=O)N1Cc1ccco1)c1ccccc1` (centres undefined), for which the cell number change stood at 0.471%. Also, the AC50 under setting [1] was 29.1 µM [rising, single point].

For the molecule `CCN(CC)S(=O)(=O)c1cccc(NC(=O)CCNC(=O)NC23CC4CC(CC(C4)C2)C3)c1`, the cell number change came out at 34%. Moreover, the concentration at half-maximal activity (AC50) under setting [2] is 16.4 µM [rising, single point].

In the case of `Cc1ccc2nc(SCC(=O)NCc3ccc4c(c3)OCO4)nc(=O)n2c1`, the cell number change was determined as 88%. Also, the AC50 under setting [2] was 9.2 µM [rising, partial curve].

In the case of `CC1C(C#N)=C(N)OC2=C1C(=O)CC(c1ccccc1)C2` (centres undefined), the cell number change is -39.6%. Also, the AC50 under setting [2] is 32.6 µM [falling, single point]. Besides, the AC50 under setting [1] was 0.0291 µM [falling, full curve, poor fit].

With `O=C(Cn1cncn1)NCc1cccc(OC(F)F)c1`, the cell number change amounted to 9.52%.

Turning to `CC(=O)c1cccc(NC(=O)CCc2nc3sc4c(c3c(=O)[nH]2)CCCC4)c1`, the cell number change was 82.2%. Besides, the AC50 under setting [2] is 16.4 µM [rising, single point].

On to `COCCn1nnnc1CN1CCC(NC(=O)c2ccc(Br)cc2)CC1`, for which the cell number change was -1.56%. For the same molecule, under setting [1], the AC50 is 2.59 µM [falling, partial curve, poor fit].

For `Cc1ccc(S(=O)(=O)Nc2ccc(NC(=O)Nc3ccc(F)cc3F)cc2)cc1`, the cell number change is -33.2%. For the same molecule, under setting [2], the AC50 was 6.51 µM [falling, partial curve].

Consider `Cc1ccc(C)c(C(=O)COC(=O)CNS(=O)(=O)c2ccccc2)c1`, for which the cell number change was -1.32%.

For the molecule `CCOC(=O)C1CCN(c2nc3ccccc3nc2C(C#N)C(=O)OCCOC)CC1` (centres undefined), the cell number change was -2.1%. Moreover, under setting [1], the AC50 was 14.6 µM [rising, single point].

On to `COCc1c(C(=O)NC(C)c2ccc(S(N)(=O)=O)cc2)oc2ccccc12` (centres undefined), for which the cell number change is 1.68%. Also, the concentration at half-maximal activity (AC50) under setting [1] is 29.1 µM [rising, partial curve, poor fit].

Regarding `Cc1cc(N2CCCC2=O)ccc1S(=O)(=O)NC1CCCCC1`, the cell number change was found to be 5.46%. In addition, under setting [1], the concentration at half-maximal activity (AC50) was 0.291 µM [rising, single point].

In the case of `COc1cccc(C(=O)NCC(=O)N/N=C/c2c(C)[nH]c3ccccc23)c1`, the cell number change is -30%. For the same molecule, the AC50 under setting [2] is 0.058 µM [falling, full curve, poor fit]. The AC50 under setting [1] was 0.184 µM [falling, full curve, poor fit].

`CCCCC(CC)CNC(=O)C1CC=CCC1C(=O)O` (centres undefined): the cell number change was -6.74%. Also, under setting [1], the half-maximal activity concentration (AC50) is 18.4 µM [rising, single point].

For the molecule `CC(C)(C)c1ccc(C(=O)Nc2ccccc2C(=O)NCCN2CCOCC2)cc1`, the cell number change stood at 22.3%. In addition, under setting [1], the AC50 was 29.1 µM [falling, single point].

Take `Cc1nnc2ccc(N3CCOCC3)nn12`: the cell number change is -31.3%. Moreover, under setting [2], the AC50 is 4.11 µM [falling, full curve, poor fit]. The concentration at half-maximal activity (AC50) under setting [1] is 18.4 µM [falling, partial curve].

On to `Cc1ccc(C(C)(C)C)c(OCCCCN2CCCC2)c1`, for which the cell number change is -6.35%. Further, under setting [2], the AC50 was 0.0058 µM [rising, full curve, poor fit]. Moreover, the concentration at half-maximal activity (AC50) under setting [1] is 6.51 µM [falling, single point].

On to `CSc1ccc(/C=C(/NC(=O)c2ccc(C)cc2)C(=O)Nc2cccc(F)c2)cc1`, for which the cell number change is -7.95%. For the same molecule, the AC50 under setting [2] was 6.51 µM [rising, single point].

In the case of `O=C(/C=C/c1ccccc1)NC(=S)NNC(=O)c1cnccn1`, the cell number change was determined as 6.11%.

Regarding `CCCCN(C)CCn1c(=S)[nH]c2ncccc2c1=O`, the cell number change came out at 0.45%.

Turning to `Cn1c(=O)c2c(ncn2CC(=O)Nc2ccccc2N2CCOCC2)n(C)c1=O`, the cell number change amounted to 14.2%.

Consider `COC(=O)/C=C/C(=O)Nc1ccc(O)c(Cl)c1`, for which the cell number change amounted to 2.36%. Under setting [1], the AC50 is 0.092 µM [rising, full curve, poor fit].

As to `N/C(=N\c1nc2ccccc2o1)NC(=O)c1ccc([N+](=O)[O-])cc1`, the cell number change was determined as 46.6%. Further, the AC50 under setting [2] was 0.326 µM [rising, full curve, poor fit]. In addition, the concentration at half-maximal activity (AC50) under setting [1] was 29.1 µM [rising, single point].

As to `CC1(C)CC(NC(=O)COc2ccc3ccc(=O)oc3c2)CC(C)(C)N1`, the cell number change came out at 11.5%. In addition, the AC50 under setting [1] was 29.1 µM [rising, single point].

`Cn1c(COc2ccc(F)cc2)nc2ccccc21`: the cell number change was -5.25%.

In the case of `CC1CCCN(S(=O)(=O)c2cc3c4c(c2)C(C)C(=O)N4CCC3)C1` (centres undefined), the cell number change was determined as 8.58%. In addition, under setting [1], the concentration at half-maximal activity (AC50) is 29.1 µM [falling, single point].

As to `CC(C)c1ccc(NC2CCCN(C(=O)c3cnc4ccccn4c3=O)C2)cc1` (centres undefined), the cell number change was -2.6%. Also, under setting [1], the AC50 was 0.13 µM [falling, full curve, poor fit].

For `CCOC(=O)CSc1nc2cc(S(=O)(=O)N3CCOCC3)ccc2n1CC`, the cell number change is -0.33%. Moreover, the concentration at half-maximal activity (AC50) under setting [1] is 0.00461 µM [rising, full curve, poor fit].

As to `Cc1[nH]c2ccccc2c1C(=O)CN1CCN(C/C=C/c2ccccc2)CC1`, the cell number change is -26%. Moreover, the concentration at half-maximal activity (AC50) under setting [1] is 29.1 µM [falling, single point].

Regarding `COc1ccc(/C=N/NC(=O)CCn2cnc(-c3ccccc3)c2-c2ccccc2)cc1`, the cell number change was -13.8%. The AC50 under setting [1] was 0.116 µM [falling, full curve, poor fit].

As to `CCCn1c(=O)c(C(=O)NNS(=O)(=O)c2ccc(C)cc2)c(O)c2ccccc21`, the cell number change was -52.3%. Further, the concentration at half-maximal activity (AC50) under setting [2] was 20.6 µM [falling, partial curve, poor fit]. Under setting [1], the half-maximal activity concentration (AC50) is 14.6 µM [falling, partial curve, poor fit].

Turning to `O=C(/C=C/c1cccc(Cl)c1)c1ccc([N+](=O)[O-])o1`, the cell number change is -73.3%. Further, the AC50 under setting [2] was 23.1 µM [falling, partial curve, poor fit]. Also, under setting [1], the AC50 was 7.31 µM [falling, partial curve].

Turning to `O=C(O)C1CCN(S(=O)(=O)c2cccs2)CC1`, the cell number change stood at 1.67%. Besides, the AC50 under setting [1] is 0.00517 µM [rising, full curve, poor fit].

With `Cn1c(NCCc2ccccc2)cc(=O)n(C)c1=O`, the cell number change was -23.4%. Besides, under setting [1], the AC50 was 29.1 µM [falling, single point].

Turning to `CCc1cc2ccc(C)c(C)c2nc1SCC(=O)Nc1cc(C)on1`, the cell number change was -4.35%.

In the case of `O=C(COc1cc2oc(=O)c3c(c2cc1Cl)CCC3)Nc1ccccn1`, the cell number change is 54.2%. The concentration at half-maximal activity (AC50) under setting [2] was 29.1 µM [rising, single point]. Further, the half-maximal activity concentration (AC50) under setting [1] was 23.1 µM [falling, partial curve].

Turning to `O=C(Nc1nc(-c2cccs2)cs1)c1cccc(S(=O)(=O)N2CCCCC2)c1`, the AC50 by setting is: under setting [2], 0.0731 µM [rising, full curve, poor fit]; under setting [1], 0.651 µM [rising, full curve].

On to `COc1ccc(NC(=O)C2CCN(S(=O)(=O)c3cccs3)CC2)cc1OC`, for which the cell number change worked out at 0.0695%. Besides, the concentration at half-maximal activity (AC50) under setting [1] is 0.326 µM [falling, full curve].

As to `C=CCn1nnnc1-c1cccc(Cl)c1`, the cell number change turned out to be 29.3%.

For the molecule `COc1cccc(/C=C2/Sc3ccc(C(=O)NCCCN4CCCC4)cc3NC2=O)c1`, the cell number change worked out at 20.3%. Further, the AC50 under setting [2] is 0.00651 µM [rising, full curve, poor fit].

Consider `CCc1nnc(NC(=O)CCC(=O)NC2CCCc3ccccc32)s1` (centres undefined), for which the cell number change worked out at 12.1%. Further, under setting [1], the concentration at half-maximal activity (AC50) was 0.82 µM [falling, single point].

Regarding `C1CCCCCC(=NNc2nn[nH]n2)CCCCC1`, the cell number change was -3.31%. For the same molecule, under setting [1], the AC50 was 7.31 µM [rising, partial curve, poor fit].

Consider `Cc1[nH]nc2c1-c1nc3ccccc3nc1C(C)(C)C2`, for which the cell number change was -36.5%. Under setting [2], the half-maximal activity concentration (AC50) was 18.4 µM [falling, single point].

Regarding `COc1ccc(C)cc1NC(=O)c1ccc(S(=O)(=O)N2CCOCC2)cc1`, the cell number change was -3.98%. The AC50 under setting [1] was 6.51 µM [rising, single point].

Turning to `CCOC(=O)C1=C(c2ccccc2)NC(N)=NC1c1ccc(OCc2ccc(C(=O)OC)cc2)cc1` (centres undefined), the cell number change is -67.1%. The concentration at half-maximal activity (AC50) under setting [2] was 25.9 µM [falling, single point]. Also, the half-maximal activity concentration (AC50) under setting [1] is 29.1 µM [falling, single point].

With `O=C(NC(c1ccccc1)c1ccccc1)c1ccc(CO)cc1`, the cell number change was -4.44%. For the same molecule, under setting [1], the AC50 was 29.1 µM [rising, single point].

In the case of `CCOc1ccc(S(=O)(=O)Nc2cc(C)ccn2)c2ccccc12`, the cell number change stood at 19.5%. Further, the AC50 under setting [2] was 0.651 µM [rising, full curve, poor fit]. Also, under setting [1], the AC50 was 2.06 µM [rising, partial curve].

For `Cc1ccc(S(=O)(=O)NCC2CCC(C(=O)NCCCN3CCOCC3)CC2)cc1` (centres undefined), the cell number change came out at 2.84%. Further, under setting [1], the concentration at half-maximal activity (AC50) is 0.206 µM [falling, full curve].

As to `COc1ccc(-c2cnnn2-c2ccc(NC(=O)c3ccco3)cc2)cc1OC`, the cell number change is 35%. Besides, under setting [2], the AC50 is 3.26 µM [rising, full curve].

Take `O=C(Nc1ccc2c(c1)OCCO2)C1CC(O)CN1C(=O)Nc1ccccc1` (centres undefined): the cell number change stood at 22.3%.

For the molecule `CCOc1ccccc1NC(=O)CN1C(=O)NC(Cc2c[nH]c3ccccc23)C1=O` (centres undefined), the cell number change was found to be 9.65%. Further, the AC50 under setting [2] is 6.51 µM [rising, single point].

`O=C(NCc1ccccn1)C(=O)Nc1cc2c3c(c1)CC(=O)N3CCC2`: the cell number change was 40.7%. For the same molecule, the AC50 under setting [2] was 2.06 µM [rising, full curve].

On to `NC(=O)c1ccc(NC(=O)COc2cccc3c2CCNC3=O)cc1`, for which the cell number change came out at 36%. Moreover, the concentration at half-maximal activity (AC50) under setting [2] is 20.6 µM [rising, single point].

In the case of `CC(C)[C@H](NC(=O)Nc1cccc(Br)c1)C(=O)O`, the cell number change is -1.15%. Also, the concentration at half-maximal activity (AC50) under setting [1] was 0.146 µM [falling, full curve].

For the molecule `c1ccc(Cn2nnc3cnccc32)cc1`, the cell number change is -0.803%. Also, the AC50 under setting [1] is 20.6 µM [falling, partial curve, poor fit].

For the molecule `Cc1cc(C)c(S(=O)(=O)N2CCOC2CNC(=O)C(=O)NCc2cccnc2)c(C)c1` (centres undefined), the cell number change was found to be 24.8%. The concentration at half-maximal activity (AC50) under setting [2] is 3.66 µM [rising, full curve, poor fit]. The AC50 under setting [1] is 0.291 µM [rising, full curve, poor fit].

As to `COc1cc(CCC(=O)Nc2ccc(Cl)c(C(F)(F)F)c2)cc(OC)c1OC`, the cell number change is 41.2%. Further, the concentration at half-maximal activity (AC50) under setting [2] was 14.6 µM [rising, single point]. Moreover, the AC50 under setting [1] is 14.6 µM [rising, partial curve].

`CC1(C)Cc2c(c(N3CCOCC3)nc3sc(C(N)=O)c(N)c23)CO1`: the cell number change was 1.52%. Besides, the AC50 under setting [1] was 1.64 µM [falling, partial curve, poor fit].

As a reminder, the AC50 is the concentration giving half of the maximal activity seen.

(Values after PubChem BioAssay AID2685 (National Center for Advancing Translational Sciences (NCATS), 2010).)
